Source: the supplement of paper PMC10849652
This is one part of the list.

Amino acid sequences for entries named in this document (tags omitted). A change or cut given only in a name is not applied to a line headed by its entry.
UniProt Q9NYB9: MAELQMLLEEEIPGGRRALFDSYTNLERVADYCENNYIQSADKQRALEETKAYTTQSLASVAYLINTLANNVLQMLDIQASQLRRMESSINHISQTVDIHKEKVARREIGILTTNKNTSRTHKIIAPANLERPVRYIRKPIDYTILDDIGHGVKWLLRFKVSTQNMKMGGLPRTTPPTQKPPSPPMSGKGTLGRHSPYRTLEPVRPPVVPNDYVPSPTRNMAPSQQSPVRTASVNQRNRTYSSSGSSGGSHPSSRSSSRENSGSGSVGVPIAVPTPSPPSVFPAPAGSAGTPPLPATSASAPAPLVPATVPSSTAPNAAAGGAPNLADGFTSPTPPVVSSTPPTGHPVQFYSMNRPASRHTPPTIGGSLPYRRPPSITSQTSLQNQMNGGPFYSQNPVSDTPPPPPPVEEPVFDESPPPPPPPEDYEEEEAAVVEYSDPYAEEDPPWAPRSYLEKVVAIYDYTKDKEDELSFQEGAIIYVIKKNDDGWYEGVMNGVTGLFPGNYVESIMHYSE
UniProt Q8NE71: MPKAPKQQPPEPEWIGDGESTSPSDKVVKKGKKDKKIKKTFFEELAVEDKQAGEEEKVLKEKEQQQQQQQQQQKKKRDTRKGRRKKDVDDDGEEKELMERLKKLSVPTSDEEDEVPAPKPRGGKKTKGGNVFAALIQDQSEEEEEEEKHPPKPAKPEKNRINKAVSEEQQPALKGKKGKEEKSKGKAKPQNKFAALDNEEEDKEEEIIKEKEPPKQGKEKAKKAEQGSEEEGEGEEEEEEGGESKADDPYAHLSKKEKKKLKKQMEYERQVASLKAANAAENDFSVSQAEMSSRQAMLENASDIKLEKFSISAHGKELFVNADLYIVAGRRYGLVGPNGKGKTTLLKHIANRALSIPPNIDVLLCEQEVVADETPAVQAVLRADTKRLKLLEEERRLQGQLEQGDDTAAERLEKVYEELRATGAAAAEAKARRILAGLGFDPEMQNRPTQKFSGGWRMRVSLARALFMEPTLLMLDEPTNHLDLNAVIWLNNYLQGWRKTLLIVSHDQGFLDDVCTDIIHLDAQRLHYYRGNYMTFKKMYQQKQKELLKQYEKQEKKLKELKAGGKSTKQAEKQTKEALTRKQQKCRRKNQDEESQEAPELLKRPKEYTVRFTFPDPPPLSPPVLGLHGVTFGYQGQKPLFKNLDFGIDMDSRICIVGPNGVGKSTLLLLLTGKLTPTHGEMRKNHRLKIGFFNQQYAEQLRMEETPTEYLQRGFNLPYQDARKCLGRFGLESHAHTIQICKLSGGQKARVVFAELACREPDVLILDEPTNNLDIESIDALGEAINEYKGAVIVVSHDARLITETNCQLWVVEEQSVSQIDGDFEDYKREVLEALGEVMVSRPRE
UniProt Q9UG63: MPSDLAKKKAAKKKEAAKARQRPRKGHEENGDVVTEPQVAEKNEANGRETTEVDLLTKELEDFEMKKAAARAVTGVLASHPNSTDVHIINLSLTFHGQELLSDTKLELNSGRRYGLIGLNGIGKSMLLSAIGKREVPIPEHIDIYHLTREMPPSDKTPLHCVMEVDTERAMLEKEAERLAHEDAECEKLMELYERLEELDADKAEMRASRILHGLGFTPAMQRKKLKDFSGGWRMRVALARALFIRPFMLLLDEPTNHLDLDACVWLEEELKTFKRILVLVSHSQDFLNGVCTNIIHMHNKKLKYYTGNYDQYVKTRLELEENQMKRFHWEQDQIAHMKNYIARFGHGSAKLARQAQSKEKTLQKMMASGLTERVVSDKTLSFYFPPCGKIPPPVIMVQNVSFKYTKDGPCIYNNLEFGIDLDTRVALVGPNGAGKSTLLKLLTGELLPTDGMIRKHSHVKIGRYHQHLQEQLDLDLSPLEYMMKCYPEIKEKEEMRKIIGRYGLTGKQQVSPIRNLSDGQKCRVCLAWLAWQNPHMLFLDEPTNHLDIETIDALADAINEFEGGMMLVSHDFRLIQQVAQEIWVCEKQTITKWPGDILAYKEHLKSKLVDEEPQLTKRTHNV
UniProt Q9NRK6: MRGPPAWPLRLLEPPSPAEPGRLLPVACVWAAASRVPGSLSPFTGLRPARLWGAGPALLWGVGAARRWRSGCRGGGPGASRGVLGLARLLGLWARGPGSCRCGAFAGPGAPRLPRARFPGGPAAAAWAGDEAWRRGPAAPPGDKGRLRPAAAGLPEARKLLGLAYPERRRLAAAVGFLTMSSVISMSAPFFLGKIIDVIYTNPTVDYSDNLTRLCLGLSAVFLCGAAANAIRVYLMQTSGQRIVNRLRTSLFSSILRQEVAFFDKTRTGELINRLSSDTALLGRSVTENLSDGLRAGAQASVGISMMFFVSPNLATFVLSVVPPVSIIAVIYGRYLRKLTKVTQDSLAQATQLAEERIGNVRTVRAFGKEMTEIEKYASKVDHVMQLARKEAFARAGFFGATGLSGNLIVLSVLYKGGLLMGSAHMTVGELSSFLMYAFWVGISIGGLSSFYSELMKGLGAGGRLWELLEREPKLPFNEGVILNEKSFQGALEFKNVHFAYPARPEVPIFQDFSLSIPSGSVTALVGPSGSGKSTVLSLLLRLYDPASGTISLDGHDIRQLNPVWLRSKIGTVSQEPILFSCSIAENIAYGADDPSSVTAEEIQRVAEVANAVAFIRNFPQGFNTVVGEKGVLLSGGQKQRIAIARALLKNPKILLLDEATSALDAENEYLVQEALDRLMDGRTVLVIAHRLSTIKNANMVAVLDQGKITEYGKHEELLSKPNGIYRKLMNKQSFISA
UniProt Q96IU4: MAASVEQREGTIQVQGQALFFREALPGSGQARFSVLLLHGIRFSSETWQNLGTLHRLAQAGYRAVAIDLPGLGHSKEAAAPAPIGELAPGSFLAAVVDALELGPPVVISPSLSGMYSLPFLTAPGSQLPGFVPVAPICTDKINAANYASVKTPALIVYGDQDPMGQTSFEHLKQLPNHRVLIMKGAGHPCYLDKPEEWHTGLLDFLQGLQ
UniProt Q6UY14: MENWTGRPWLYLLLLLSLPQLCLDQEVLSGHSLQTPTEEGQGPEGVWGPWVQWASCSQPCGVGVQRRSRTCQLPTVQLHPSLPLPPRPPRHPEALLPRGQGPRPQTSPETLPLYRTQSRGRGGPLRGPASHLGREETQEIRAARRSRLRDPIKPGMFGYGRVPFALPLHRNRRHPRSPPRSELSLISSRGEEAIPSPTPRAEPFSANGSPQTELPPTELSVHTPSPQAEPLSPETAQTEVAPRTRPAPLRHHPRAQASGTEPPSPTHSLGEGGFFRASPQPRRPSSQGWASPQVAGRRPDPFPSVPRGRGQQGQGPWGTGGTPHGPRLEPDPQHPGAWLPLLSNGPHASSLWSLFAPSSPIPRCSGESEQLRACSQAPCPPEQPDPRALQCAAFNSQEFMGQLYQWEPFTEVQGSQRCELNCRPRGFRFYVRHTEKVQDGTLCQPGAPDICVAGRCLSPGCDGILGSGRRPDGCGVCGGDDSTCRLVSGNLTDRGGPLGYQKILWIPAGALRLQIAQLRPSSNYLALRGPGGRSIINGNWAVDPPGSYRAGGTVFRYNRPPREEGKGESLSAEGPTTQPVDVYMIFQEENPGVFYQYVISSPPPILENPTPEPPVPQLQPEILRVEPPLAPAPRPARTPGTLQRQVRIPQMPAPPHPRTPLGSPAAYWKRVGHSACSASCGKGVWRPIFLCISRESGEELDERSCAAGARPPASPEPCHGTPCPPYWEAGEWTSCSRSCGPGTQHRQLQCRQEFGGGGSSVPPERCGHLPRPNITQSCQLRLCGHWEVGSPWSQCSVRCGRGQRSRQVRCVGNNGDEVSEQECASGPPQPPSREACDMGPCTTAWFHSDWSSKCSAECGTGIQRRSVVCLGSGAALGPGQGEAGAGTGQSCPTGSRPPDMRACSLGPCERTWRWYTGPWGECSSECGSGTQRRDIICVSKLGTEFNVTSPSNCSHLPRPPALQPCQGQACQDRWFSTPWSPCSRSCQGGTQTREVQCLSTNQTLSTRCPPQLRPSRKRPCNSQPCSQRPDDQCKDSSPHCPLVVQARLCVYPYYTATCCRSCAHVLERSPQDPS
UniProt Q5VST6: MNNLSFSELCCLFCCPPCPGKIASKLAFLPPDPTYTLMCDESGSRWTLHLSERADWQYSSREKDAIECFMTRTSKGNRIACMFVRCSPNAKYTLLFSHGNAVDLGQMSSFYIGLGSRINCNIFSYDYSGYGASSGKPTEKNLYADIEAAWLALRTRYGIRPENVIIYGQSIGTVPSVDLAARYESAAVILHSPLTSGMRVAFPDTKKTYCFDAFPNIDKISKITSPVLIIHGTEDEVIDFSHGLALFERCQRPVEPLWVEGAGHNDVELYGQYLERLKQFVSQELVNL
UniProt O15439: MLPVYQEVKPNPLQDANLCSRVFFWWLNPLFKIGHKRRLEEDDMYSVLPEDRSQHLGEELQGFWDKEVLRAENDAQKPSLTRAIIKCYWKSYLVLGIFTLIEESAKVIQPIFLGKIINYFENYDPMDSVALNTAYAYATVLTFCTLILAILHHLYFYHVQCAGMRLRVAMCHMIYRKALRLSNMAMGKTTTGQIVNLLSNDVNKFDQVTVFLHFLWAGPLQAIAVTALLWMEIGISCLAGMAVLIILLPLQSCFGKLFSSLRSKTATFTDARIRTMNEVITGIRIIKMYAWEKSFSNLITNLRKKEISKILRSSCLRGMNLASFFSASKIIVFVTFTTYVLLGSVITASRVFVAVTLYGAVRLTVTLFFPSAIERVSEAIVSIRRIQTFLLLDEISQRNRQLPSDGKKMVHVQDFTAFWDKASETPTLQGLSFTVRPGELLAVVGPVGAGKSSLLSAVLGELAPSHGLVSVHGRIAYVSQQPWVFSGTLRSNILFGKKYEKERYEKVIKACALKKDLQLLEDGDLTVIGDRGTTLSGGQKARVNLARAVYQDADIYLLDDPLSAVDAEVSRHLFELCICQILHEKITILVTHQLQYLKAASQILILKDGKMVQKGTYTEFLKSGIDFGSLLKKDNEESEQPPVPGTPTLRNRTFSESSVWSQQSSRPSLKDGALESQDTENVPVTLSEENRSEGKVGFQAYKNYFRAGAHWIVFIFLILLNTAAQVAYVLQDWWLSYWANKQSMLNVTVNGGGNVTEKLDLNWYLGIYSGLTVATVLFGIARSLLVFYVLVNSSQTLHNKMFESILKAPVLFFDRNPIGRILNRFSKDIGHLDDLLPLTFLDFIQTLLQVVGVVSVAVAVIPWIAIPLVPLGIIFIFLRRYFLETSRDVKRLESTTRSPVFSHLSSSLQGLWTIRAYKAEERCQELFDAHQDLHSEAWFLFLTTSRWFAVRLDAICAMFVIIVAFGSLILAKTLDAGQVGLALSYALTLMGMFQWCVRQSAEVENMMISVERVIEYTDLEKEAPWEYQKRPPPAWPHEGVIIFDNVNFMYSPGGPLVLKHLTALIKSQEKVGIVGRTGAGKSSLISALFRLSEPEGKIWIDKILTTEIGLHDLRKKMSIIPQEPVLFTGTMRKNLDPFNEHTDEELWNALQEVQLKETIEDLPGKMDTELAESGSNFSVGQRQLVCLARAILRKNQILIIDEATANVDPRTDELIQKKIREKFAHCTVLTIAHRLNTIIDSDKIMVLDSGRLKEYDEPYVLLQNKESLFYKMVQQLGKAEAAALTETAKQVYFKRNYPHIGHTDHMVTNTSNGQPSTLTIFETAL
UniProt Q9NZ32, whole entry, looked up: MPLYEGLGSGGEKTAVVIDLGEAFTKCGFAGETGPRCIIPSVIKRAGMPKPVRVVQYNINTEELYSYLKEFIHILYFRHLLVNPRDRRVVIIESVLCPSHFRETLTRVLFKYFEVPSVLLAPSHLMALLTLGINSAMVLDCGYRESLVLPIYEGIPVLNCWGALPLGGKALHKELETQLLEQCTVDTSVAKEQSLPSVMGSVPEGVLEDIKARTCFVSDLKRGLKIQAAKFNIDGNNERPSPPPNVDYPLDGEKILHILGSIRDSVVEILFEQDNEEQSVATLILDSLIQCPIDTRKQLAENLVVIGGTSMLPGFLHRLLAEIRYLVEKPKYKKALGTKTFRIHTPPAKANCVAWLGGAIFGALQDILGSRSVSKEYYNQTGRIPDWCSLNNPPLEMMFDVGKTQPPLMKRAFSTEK
UniProt P24752: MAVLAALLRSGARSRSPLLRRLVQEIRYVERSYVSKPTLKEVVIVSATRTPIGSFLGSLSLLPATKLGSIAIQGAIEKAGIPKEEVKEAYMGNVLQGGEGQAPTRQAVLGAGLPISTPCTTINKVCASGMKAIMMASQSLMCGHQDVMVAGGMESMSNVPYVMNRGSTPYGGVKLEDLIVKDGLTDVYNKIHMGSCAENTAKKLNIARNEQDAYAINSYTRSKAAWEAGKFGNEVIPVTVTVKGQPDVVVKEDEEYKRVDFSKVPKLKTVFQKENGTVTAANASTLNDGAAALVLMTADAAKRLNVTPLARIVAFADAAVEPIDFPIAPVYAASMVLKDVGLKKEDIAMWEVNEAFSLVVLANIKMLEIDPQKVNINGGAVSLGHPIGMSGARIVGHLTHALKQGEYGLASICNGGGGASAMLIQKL

Experiments:
Assay in all cases: log2 fold change, soluble protein after heating vs DMSO (PISA); higher = thermal stabilisation; K562 cells, 10 uM, 30 min; active = over 0.2 and 3.5 SD of the protein, either way, in both replicates (recomputed)
[1] = compound: CC[C@@H]1C(=O)N(C)c2cnc(Nc3ccc(C(=O)NC4CCN(C)CC4)cc3OC)nc2N1C1CCCC1
Procedure, shortened: (§1)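 Soluble protein was quantified by TMTpro 16plex LC-MS/MS after channel sums were equalised. It was obtained as the supernatant after 21,000xg for 90 min from pooled aliquots of K562 cells (2×10^6 cells/mL, 10 μM compound, 30 min) heated for 3 min across 48°C-58°C and extracted in PBS with 0.5% NP-40 at 4°C. Thermal stability values are relative to control samples and come from duplicates. They are given as log2 fold changes.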

[2] = compound: CC[C@@H]1C(=O)N(C)c2cnc(Nc3ccc(C(=O)N[C@H]4CC[C@H](N5CCN(CC6CC6)CC5)CC4)cc3OC)nc2N1C(C)C [volasertib]
Procedure, shortened: as §1

[3] = compound: CC[C@H](C)N1C=C(C2=C(C=C(C=C21)C3=CN=C(C=C3)N4CCNCC4)C(=O)NCC5=C(C=C(NC5=O)C)C)C
Procedure, shortened: as §1

[4] = compound: CC[C@H](C)[C@@H](C(=O)N[C@@H]([C@@H](C)O)C(=O)N[C@@H](CC(C)C)C(=O)[C@]1(CO1)C)NC(=O)[C@H]([C@@H](C)CC)N(C)C(=O)C [epoxomicin]
Procedure, shortened: as §1

[5] = compound: CCn1c(C(=O)N(C2CC2)C2CC2)cc2c3c(ncn3C)c(Nc3cc(C)n(C)n3)nc21
Procedure, shortened: as §1

[6] = compound: CCn1cc(-c2ccnc3[nH]c(-c4cccc(CN(C)C)c4)cc23)c(-c2ccc(NC(=O)N(C)C)cc2)n1
Procedure, shortened: as §1

[7] = compound: CN(C)CC(=O)Nc1ccc2[nH]c(=O)c3ccccc3c2c1
Procedure, shortened: as §1

[8] = compound: CN(CCOC1=CC=C(C=C1)C[C@H]2C(=O)NC(=O)S2)C3=CC=CC=N3 (racemic) [rosiglitazone]
Procedure, shortened: as §1

[9] = compound: CN1C2=C(C3=C1C(=O)N(N=C3)CC4=CC(=CC=C4)N)SC(=C2)S(=O)C
Procedure, shortened: as §1

[10] = compound: CN1CCC(CNc2ccc3ncc(-c4cccc(OC(F)(F)F)c4)n3n2)CC1
Procedure, shortened: as §1

Measured: log2 fold change

ABI2 (UniProt Q9NYB9)
inactive: [1] -0.023 | [2] -0.159 | [3] 0.076 | [4] 0.005 | [5] -0.02 | [6] -0.018 | [7] 0.078 | [8] -0.077 | [9] -0.025 | [10] -0.146

AARS (UniProt P49588)
inactive: [1] -0.023 | [2] 0.021 | [3] 0.003 | [4] 0.057 | [5] 0.021 | [6] -0.04 | [7] -0.007 | [8] 0.028 | [9] -0.047 | [10] 0.006

ABCE1 (UniProt P61221)
inactive: [1] 0.027 | [2] 0.041 | [3] -0.031 | [4] 0.001 | [5] 0.045 | [6] 0 | [7] -0.025 | [8] -0.001 | [9] -0.018 | [10] -0.018

ABCF1 (UniProt Q8NE71)
inactive: [1] 0.1 | [2] 0.003 | [3] -0.002 | [4] -0.119 | [5] 0 | [6] 0.027 | [7] -0.04 | [8] -0.047 | [9] 0.08 | [10] 0.12

ABCF2 isoform 2 (UniProt Q9UG63)
inactive: [1] -0.003 | [2] 0.082 | [3] -0.004 | [4] 0.003 | [5] 0.007 | [6] -0.065 | [7] -0.003 | [8] 0.027 | [9] -0.029 | [10] -0.004

Random excerpt: 2 records from the list.
ABI2 (UniProt Q9NYB9)
inactive: [1] -0.023 | [2] -0.159 | [3] 0.076 | [4] 0.005 | [5] -0.02 | [6] -0.018 | [7] 0.078 | [8] -0.077 | [9] -0.025 | [10] -0.146

ABCE1 (UniProt P61221)
inactive: [1] 0.027 | [2] 0.041 | [3] -0.031 | [4] 0.001 | [5] 0.045 | [6] 0 | [7] -0.025 | [8] -0.001 | [9] -0.018 | [10] -0.018

Following part:

ABHD12 isoform 2 (UniProt Q8N2K0)
inactive: [1] 0.008 | [2] -0.033 | [3] 0.006 | [4] -0.007 | [5] 0.039 | [6] 0.051 | [7] -0.016 | [8] 0.025 | [9] 0.023 | [10] 0.006

ACY1 (UniProt Q03154)
inactive: [1] 0.019 | [2] 0.049 | [3] -0.026 | [4] 0.029 | [5] -0.008 | [6] 0.004 | [7] 0.002 | [8] 0.023 | [9] -0.067 | [10] -0.028

ABCB10 (UniProt Q9NRK6)
inactive: [1] 0.009 | [2] 0.004 | [3] -0.019 | [4] 0.01 | [5] -0.003 | [6] 0.007 | [7] -0.033 | [8] -0.004 | [9] -0.034 | [10] -0.035

ACSS2 isoform 2 (UniProt Q9NR19)
inactive: [1] -0.015 | [2] -0.048 | [3] 0.025 | [4] 0.073 | [5] -0.007 | [6] -0.089 | [7] 0.016 | [8] 0.017 | [9] -0.016 | [10] -0.123

ABHD13 (UniProt Q7L211)
inactive: [1] -0.048 | [2] 0.043 | [3] -0.262 | [4] 0.018 | [5] 0.049 | [6] -0.107 | [7] 0.066 | [8] 0.016 | [9] -0.039 | [10] -0.004

ACTL6A (UniProt O96019)
inactive: [1] 0.015 | [2] 0.014 | [3] 0.029 | [4] 0.004 | [5] -0.024 | [6] -0.032 | [7] -0.017 | [8] 0.024 | [9] -0.042 | [10] -0.053

ABCB1 (UniProt P08183)
inactive: [1] -0.009 | [2] 0.088

ABHD10 (UniProt Q9NUJ1)
inactive: [1] 0.061 | [2] 0.044 | [3] -0.042 | [4] -0.021 | [5] 0.029 | [6] -0.006 | [7] -0.012 | [8] 0.012 | [9] -0.005 | [10] 0.048

ACTL8 (UniProt Q9H568)
inactive: [1] 0.159 | [2] 0.059 | [3] -0.016 | [4] 0.037 | [5] 0.019 | [6] 0.113 | [7] 0.05 | [8] 0.117 | [9] -0.013 | [10] 0.023

ACOT7 isoform 7 (UniProt O00154)
inactive: [1] 0.013 | [2] 0.027 | [3] -0.023 | [4] -0.036 | [5] -0.006 | [6] -0.041 | [7] 0.013 | [8] -0.015 | [9] -0.058 | [10] -0.03

ADAL (UniProt Q6DHV7)
inactive: [1] 0.072 | [2] 0.037 | [3] 0.032 | [4] 0.004 | [5] 0.001 | [6] -0.011 | [7] -0.078 | [8] 0.006 | [9] -0.083 | [10] -0.025

ABHD14B (UniProt Q96IU4)
inactive: [1] -0.03 | [2] -0.024 | [3] 0.018 | [4] 0.027 | [5] 0.017 | [6] -0.029 | [7] 0.094 | [8] 0.005 | [9] -0.056 | [10] 0.061

ADAMTSL4 isoform 3 (UniProt Q6UY14)
inactive: [1] 0.078 | [2] 0.068 | [3] -0.139 | [4] -0.147 | [5] 0.021 | [6] -0.103 | [7] -0.066 | [8] -0.028 | [9] 0.045 | [10] 0.037

ABI1 (UniProt Q8IZP0)
inactive: [1] 0.008 | [2] -0.178 | [3] 0.059 | [4] 0.005 | [5] -0.022 | [6] 0.125 | [7] 0.045 | [8] 0.01 | [9] -0.091 | [10] 0.012

ADA (UniProt P00813)
inactive: [1] -0.007 | [2] 0.144 | [3] 0.03 | [4] -0.009 | [5] 0.02 | [6] 0.017 | [7] -0.023 | [8] 0.029 | [9] 0.023 | [10] 0.033

ACADS (UniProt P16219)
inactive: [1] 0.064 | [2] -0.028 | [3] -0.009 | [4] -0.001 | [5] -0.016 | [6] -0.037 | [7] 0.431 | [8] 0.016 | [9] -0.063 | [10] 0.069

ACTA1 (UniProt P68133)
inactive: [1] -0.023 | [2] -0.032 | [3] -0.04 | [4] -0.001 | [5] 0.007 | [6] 0.027 | [7] -0.014 | [8] -0.01 | [9] -0.05 | [10] 0.059

ABHD17B (UniProt Q5VST6)
inactive: [1] -0.021 | [2] -0.136 | [3] -0.02 | [4] -0.047 | [5] -0.065 | [6] -0.034 | [7] 0.01 | [8] -0.013 | [9] -0.003 | [10] -0.102

ACTN1 (UniProt P12814)
inactive: [1] 0.022 | [2] 0.016 | [3] -0.02 | [4] 0.013 | [5] 0.007 | [6] -0.033 | [7] -0.014 | [8] 0.011 | [9] -0.051 | [10] 0.028

ABCC4 (UniProt O15439)
inactive: [1] 0.133 | [2] 0.014 | [3] -0.024 | [4] 0.013 | [5] 0.002 | [6] -0.016 | [7] -0.01 | [8] -0.007 | [9] -0.074 | [10] 0.163

ACAD8 (UniProt Q9UKU7)
inactive: [1] 0.084 | [2] -0.111 | [3] -0.014 | [4] -0.015 | [5] -0.09 | [6] -0.055 | [7] -0.029 | [8] 0.026 | [9] -0.091 | [10] 0.001

ACTR10 (UniProt Q9NZ32)
inactive: [1] 0.008 | [2] -0.004 | [3] -0.009 | [4] 0.036 | [5] 0.008 | [6] -0.005 | [7] -0.055 | [8] -0.034 | [9] -0.052 | [10] 0.101

ACAT1 (UniProt P24752)
inactive: [1] 0.083 | [2] 0.087 | [3] -0.002 | [4] 0.051 | [5] -0.021 | [6] 0.005 | [7] -0.044 | [8] -0.01 | [9] -0.022 | [10] 0.064

A2M (UniProt P01023)
inactive: [1] -0.034 | [2] 0.028 | [3] 0.025 | [4] -0.647 | [5] -0.013 | [6] 0.035 | [7] -0.031 | [8] -0.007 | [9] 0.356 | [10] 0.043

ABCE1 (UniProt H0Y990)
inactive: [1] 0.067 | [2] -0.002 | [3] -0.013 | [4] 0.162 | [5] -0.212 | [6] 0.128 | [7] 0.083 | [8] 0.076 | [9] -0.034 | [10] 0.121
